Where two headings read alike, the source gives them in different places. Results are given in words; binding and its absence hold for the method and conditions named. Binding seen in cells or lysates may run through a third protein. Some entries that bind do so weakly or less than the wild type. Sequences can lack the tags named with a protein.
Legend:
[1] = target: T1, FLAG-hMCC (human MCC isoform 1 with an N-terminal FLAG tag) (human) (UniProt P23508); assay: co-IP; whole cell CHAPS lysates of transduced 8226 cells; anti-FLAG-agarose beads (FLAG-hMCC) or streptavidin-sepharose beads (hMCC-SBP-6×His); 5 washes in 0.5% CHAPS, 20 mM Tris pH 7.4, 150 mM NaCl; immunoblot
T1 sequence: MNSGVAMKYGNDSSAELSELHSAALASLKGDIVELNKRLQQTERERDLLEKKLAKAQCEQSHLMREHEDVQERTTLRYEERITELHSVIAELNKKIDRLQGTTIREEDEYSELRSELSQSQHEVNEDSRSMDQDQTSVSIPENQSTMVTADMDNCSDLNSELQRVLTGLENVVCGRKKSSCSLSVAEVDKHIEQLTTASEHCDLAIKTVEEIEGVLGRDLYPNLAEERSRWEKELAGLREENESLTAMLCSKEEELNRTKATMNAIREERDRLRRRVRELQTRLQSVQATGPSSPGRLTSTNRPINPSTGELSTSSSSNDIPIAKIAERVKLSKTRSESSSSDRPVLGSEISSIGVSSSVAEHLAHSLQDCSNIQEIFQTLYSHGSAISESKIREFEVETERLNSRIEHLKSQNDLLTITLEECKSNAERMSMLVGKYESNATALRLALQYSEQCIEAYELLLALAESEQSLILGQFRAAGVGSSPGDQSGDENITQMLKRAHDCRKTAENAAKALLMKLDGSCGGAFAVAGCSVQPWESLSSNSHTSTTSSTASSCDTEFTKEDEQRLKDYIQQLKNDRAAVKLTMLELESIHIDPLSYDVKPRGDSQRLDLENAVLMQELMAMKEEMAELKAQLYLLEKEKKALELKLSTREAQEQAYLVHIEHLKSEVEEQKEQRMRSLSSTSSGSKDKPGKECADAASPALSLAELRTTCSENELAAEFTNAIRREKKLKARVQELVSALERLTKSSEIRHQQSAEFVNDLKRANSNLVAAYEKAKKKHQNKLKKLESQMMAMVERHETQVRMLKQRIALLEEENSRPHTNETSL

Sequences of proteins named here, by UniProt entry; tags and fusion partners are left off.
UniProt P40337: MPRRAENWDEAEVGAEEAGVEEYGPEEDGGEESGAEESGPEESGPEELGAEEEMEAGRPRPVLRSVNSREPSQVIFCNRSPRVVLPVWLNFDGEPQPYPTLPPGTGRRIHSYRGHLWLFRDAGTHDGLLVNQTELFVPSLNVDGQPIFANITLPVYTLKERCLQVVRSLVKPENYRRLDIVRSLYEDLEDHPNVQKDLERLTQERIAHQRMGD
UniProt P09874: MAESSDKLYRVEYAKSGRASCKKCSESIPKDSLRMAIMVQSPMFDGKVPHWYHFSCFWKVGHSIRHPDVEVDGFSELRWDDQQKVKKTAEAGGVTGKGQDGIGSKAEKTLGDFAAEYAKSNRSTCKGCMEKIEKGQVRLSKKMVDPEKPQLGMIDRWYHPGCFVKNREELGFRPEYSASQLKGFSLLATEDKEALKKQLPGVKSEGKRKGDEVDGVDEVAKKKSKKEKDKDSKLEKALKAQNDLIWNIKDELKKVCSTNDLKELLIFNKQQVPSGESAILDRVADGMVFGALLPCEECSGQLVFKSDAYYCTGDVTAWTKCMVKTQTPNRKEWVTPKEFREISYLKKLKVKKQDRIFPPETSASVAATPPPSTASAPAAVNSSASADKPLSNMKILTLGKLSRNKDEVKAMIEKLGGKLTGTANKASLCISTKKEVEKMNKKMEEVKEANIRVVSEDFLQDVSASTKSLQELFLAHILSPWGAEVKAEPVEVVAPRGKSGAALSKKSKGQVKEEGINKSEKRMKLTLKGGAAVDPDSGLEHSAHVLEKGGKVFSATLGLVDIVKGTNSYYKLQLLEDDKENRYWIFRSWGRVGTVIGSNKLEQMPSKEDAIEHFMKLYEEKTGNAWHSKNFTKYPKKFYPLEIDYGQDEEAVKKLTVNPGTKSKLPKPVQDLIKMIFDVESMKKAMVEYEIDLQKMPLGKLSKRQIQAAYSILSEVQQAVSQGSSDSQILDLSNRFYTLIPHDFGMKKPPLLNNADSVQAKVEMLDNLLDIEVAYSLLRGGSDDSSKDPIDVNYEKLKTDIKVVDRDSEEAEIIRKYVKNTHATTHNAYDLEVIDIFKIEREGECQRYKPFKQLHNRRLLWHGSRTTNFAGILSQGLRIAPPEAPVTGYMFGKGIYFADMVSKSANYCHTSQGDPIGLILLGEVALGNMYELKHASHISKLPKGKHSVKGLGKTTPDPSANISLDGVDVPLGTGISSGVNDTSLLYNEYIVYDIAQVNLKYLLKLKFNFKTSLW
UniProt P35580: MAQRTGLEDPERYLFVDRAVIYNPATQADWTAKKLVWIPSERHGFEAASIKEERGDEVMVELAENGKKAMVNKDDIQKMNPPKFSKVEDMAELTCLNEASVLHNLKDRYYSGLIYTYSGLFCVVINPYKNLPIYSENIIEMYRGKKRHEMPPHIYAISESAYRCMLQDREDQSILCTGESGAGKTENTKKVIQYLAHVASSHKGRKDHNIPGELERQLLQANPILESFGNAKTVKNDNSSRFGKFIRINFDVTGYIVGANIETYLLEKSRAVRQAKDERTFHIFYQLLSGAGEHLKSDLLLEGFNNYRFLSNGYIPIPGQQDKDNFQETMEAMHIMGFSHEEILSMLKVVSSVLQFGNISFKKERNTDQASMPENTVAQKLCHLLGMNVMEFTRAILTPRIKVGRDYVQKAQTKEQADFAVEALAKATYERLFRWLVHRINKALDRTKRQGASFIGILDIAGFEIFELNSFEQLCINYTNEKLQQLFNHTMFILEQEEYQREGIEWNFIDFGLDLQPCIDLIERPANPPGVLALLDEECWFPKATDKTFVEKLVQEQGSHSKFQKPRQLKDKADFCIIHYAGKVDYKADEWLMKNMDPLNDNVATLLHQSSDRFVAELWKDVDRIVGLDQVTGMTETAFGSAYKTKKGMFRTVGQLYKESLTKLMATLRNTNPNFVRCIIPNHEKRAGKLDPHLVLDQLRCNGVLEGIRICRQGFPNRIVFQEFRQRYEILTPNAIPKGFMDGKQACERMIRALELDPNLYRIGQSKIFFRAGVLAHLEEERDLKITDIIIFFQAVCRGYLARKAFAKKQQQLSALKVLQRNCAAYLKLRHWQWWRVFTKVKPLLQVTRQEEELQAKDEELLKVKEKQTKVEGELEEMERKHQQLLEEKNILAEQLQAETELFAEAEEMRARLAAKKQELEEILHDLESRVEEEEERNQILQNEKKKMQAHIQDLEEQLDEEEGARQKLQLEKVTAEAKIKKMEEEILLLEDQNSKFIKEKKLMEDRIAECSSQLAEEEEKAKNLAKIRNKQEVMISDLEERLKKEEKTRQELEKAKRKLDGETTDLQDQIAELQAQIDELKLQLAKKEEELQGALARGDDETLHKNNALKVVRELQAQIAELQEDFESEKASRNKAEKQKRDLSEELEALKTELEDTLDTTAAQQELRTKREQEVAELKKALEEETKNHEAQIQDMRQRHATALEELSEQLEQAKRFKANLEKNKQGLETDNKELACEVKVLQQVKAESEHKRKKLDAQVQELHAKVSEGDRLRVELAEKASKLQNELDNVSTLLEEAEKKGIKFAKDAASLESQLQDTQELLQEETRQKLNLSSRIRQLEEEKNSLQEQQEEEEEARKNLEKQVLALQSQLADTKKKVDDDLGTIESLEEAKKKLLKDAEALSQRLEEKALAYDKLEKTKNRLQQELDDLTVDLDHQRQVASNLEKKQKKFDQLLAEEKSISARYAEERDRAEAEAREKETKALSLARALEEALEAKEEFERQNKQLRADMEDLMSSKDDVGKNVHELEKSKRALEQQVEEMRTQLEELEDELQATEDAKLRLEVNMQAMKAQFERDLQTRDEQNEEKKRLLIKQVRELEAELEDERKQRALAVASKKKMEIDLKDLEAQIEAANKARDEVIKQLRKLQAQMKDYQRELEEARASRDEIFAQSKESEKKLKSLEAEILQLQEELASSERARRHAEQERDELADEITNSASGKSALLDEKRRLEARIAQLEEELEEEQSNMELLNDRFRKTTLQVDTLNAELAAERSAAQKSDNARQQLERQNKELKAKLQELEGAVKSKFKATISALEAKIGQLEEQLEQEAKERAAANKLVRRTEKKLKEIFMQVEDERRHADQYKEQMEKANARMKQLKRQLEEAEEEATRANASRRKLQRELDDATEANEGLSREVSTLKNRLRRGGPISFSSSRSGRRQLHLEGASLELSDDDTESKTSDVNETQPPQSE
UniProt P35222: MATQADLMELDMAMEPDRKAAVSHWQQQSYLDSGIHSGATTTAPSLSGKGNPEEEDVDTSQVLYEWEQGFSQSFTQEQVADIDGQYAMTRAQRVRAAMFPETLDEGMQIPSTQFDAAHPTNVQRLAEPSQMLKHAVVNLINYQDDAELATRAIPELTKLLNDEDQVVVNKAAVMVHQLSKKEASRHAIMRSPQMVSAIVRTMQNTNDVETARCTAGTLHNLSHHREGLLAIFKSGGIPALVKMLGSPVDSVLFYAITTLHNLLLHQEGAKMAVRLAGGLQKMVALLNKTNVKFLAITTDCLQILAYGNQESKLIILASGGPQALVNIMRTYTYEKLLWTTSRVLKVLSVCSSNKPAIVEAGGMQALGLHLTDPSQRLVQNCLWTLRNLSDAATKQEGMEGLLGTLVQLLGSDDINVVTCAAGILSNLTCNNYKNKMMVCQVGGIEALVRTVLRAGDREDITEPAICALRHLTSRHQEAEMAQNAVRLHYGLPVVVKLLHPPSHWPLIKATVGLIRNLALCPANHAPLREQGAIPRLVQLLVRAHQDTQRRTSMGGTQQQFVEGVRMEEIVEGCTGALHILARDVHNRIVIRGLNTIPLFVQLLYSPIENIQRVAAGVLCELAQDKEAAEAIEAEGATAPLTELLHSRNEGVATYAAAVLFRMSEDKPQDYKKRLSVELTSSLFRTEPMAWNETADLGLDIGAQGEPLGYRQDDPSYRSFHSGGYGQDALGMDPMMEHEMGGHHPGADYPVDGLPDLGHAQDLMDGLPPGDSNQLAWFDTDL
UniProt Q14160: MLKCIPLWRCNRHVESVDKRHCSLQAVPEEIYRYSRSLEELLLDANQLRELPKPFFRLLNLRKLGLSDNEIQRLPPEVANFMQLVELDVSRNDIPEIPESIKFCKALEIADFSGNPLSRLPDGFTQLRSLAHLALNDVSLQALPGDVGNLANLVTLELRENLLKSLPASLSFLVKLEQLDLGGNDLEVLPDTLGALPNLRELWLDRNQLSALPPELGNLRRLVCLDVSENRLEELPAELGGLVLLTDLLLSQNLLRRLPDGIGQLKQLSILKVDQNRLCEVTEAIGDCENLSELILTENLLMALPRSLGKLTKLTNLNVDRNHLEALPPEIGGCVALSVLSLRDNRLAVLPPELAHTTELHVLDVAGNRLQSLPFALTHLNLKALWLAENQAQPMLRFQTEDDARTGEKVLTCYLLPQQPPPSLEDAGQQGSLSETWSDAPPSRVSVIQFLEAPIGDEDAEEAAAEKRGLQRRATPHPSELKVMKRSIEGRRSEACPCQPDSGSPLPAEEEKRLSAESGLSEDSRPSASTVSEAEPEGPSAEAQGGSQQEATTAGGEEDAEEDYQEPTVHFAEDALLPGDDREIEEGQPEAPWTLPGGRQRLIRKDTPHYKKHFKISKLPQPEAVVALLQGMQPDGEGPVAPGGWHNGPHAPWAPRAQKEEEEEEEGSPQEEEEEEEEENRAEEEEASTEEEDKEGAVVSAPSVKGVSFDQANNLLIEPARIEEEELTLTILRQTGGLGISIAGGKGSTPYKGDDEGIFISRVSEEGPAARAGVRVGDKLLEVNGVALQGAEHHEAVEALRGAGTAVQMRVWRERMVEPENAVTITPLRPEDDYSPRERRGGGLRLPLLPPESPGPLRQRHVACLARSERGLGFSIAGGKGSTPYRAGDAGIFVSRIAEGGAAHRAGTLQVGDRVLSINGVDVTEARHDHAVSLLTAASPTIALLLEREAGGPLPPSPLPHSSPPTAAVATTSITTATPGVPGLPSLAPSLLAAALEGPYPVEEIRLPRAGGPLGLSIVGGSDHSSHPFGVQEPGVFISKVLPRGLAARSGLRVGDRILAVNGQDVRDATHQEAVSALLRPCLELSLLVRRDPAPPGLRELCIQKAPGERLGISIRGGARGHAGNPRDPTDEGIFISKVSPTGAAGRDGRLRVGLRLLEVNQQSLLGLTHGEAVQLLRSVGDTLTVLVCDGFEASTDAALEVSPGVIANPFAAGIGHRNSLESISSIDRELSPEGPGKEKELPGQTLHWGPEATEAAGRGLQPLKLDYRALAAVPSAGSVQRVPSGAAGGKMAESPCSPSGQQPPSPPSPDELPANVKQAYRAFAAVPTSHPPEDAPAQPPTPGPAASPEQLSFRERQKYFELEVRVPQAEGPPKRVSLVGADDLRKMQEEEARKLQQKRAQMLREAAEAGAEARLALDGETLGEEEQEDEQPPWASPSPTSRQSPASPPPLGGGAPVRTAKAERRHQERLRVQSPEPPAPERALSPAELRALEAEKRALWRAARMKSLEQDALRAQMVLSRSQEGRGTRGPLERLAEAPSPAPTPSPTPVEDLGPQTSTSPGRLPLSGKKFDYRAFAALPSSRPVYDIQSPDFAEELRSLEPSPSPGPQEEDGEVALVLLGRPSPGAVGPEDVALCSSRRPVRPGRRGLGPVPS

[2] = target: T2, hMCC-SBP-6×His (human MCC isoform 1 with a C-terminal SBP-6×His tag) (human) (UniProt P23508); assay: as above
T2 sequence: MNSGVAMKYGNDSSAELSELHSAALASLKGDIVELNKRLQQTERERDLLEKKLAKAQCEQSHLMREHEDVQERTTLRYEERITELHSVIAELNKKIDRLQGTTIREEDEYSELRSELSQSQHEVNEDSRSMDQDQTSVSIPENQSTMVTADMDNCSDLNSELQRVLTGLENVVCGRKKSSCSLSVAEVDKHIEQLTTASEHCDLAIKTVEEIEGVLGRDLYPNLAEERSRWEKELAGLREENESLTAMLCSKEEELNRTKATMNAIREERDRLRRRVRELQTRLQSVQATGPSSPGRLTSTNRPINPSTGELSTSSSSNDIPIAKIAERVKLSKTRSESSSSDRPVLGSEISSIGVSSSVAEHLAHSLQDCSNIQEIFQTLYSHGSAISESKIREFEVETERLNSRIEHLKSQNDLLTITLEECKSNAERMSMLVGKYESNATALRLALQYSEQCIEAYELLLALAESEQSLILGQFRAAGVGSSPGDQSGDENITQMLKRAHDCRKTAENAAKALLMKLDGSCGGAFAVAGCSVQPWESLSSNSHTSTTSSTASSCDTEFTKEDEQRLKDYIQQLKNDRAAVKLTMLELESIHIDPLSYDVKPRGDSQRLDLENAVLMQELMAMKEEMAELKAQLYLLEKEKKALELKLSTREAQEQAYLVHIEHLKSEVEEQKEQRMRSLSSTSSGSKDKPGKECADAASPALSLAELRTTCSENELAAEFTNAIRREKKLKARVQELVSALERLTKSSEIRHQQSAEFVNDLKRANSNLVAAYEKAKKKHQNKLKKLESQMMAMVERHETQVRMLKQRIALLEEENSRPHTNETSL

[3] = target: T2, hMCC-SBP-6×His (human MCC isoform 1 with a C-terminal SBP-6×His tag) (human); assay: co-IP; CHAPS lysates of mitochondria purified from transduced 8226 cells; streptavidin-sepharose beads (hMCC-SBP-6×His); 5 washes; immunoblot
[4] = target: T1, FLAG-hMCC (human MCC isoform 1 with an N-terminal FLAG tag) (human); assay: co-IP; whole cell CHAPS lysates of transduced 8226 cells; anti-FLAG-agarose beads (FLAG-hMCC) or streptavidin-sepharose beads (hMCC-SBP-6×His); 5 washes in 0.5% CHAPS, 20 mM Tris pH 7.4, 150 mM NaCl; immunoblot; remark: listed apart in the source
[5] = target: T2, hMCC-SBP-6×His (human MCC isoform 1 with a C-terminal SBP-6×His tag) (human); assay: as above; remark: listed apart in the source

With VCP (from UniProt P55072 1-806) the binding [1] was “no binding” and the binding [2] was “no binding”.

VHL (from UniProt P40337 1-213) was tested, and the binding [1] was “no binding” and the binding [2] was “no binding”.

With “Poly [ADP-ribose] polymerase 1 (from UniProt P09874 1-1014)” the binding [3] was “binds” and the binding [2] was “binds”.

For myosin IIb (from UniProt P35580 1-1976), the binding [1] was “no binding” and the binding [2] was “no binding”.

For β-catenin (from UniProt P35222 1-781), the binding [1] was “no binding” and the binding [2] was “no binding”.

With scribble (from UniProt Q14160 1-1655) the binding [1] was “no binding” and the binding [2] was “no binding”.

B1: DFFA (protein, UniProt O00273 1-331)
chain: MEVTGDAGVPESGEIRTLKPCLLRRNYSREQHGVAASCLEDLRSKACDILAIDKSLTPVTLVLAEDGTIVDDDDYFLCLPSNTKFVALASNEKWAYNNSDGGTAWISQESFDVDETDSGAGLKWKNVARQLKEDLSSIILLSEEDLQMLVDAPCSDLAQELRQSCATVQRLQHTLQQVLDQREEVRQSKQLLQLYLQALEKEGSLLSKQEESKAAFGEEVDAVDTGISRETSSDVALASHILTALREKQAPELSLSSQDLELVTKEDPKALAVALNWDIKKTETVQEACERELALRLQQTQSLHSLRSISASKASPPGDLQNPKRARQDPT
B1 was tested, and the binding [4] was “no binding” and the binding [5] was “no binding”.

From article PMC4172902
